## Results of single-concentration screens

The chains behind the UniProt entries cited, without tags or fusion partners. Residues count along the entry.
UniProt A4I591, 1-473: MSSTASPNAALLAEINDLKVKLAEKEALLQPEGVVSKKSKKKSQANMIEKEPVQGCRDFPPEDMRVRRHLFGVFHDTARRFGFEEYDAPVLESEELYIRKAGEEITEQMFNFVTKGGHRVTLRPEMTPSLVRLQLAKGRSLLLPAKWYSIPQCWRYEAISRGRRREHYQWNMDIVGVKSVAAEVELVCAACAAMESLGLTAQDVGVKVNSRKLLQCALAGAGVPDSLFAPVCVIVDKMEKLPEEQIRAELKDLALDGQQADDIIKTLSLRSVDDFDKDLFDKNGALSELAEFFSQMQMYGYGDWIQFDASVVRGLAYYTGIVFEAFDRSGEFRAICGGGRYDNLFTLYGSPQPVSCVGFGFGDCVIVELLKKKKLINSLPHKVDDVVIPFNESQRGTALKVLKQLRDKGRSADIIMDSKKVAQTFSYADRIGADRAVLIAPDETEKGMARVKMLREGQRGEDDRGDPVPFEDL
UniProt P9WFT3, whole entry: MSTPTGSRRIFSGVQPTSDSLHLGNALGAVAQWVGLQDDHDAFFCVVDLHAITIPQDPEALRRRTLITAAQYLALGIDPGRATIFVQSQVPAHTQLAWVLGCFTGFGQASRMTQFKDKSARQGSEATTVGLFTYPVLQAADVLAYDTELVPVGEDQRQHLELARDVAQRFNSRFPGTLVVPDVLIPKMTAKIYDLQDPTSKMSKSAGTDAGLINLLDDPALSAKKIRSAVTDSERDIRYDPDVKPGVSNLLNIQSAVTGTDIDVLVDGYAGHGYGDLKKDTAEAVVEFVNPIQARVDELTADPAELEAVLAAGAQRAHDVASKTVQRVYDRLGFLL

The values are deposited in ChEMBL (CHEMBL3988442, “University of Dundee, Small-Polar-MMV Screening Library” (2021)).

LiHisRS: 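Enzyme assay of histidyl-tRNA synthetase; the read-out is not stated. Target: Histidine-tRNA ligase, Leishmania infantum (UniProt A4I591). Compounds at 30 µM. The record gives no direction; compounds that gave an IC50 in retests scored well above the rest, so higher reads as stronger inhibition. The assay is labelled LdHisRS but filed under L. infantum. About 69,000 compounds were tested under these conditions; 0.6% (about 410) showed 50% or more at least once.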
T. brucei: 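Whole-parasite assay of Trypanosoma brucei over 72 hours; the read-out is not stated. Concentration: 30 µM. Higher reads as stronger inhibition (inferred: compounds with an IC50 in retests scored well above the rest). Values scatter widely below zero; nearly all retest evidence comes from the higher of the two concentrations used. Of about 64,000 compounds tested this way, about 940 (1.5%) reached 50% or more in at least one test.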
MtTrpRS: 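Tryptophan-tRNA ligase, Mycobacterium tuberculosis (UniProt P9WFT3). Enzyme assay of tryptophanyl-tRNA synthetase; the read-out is not stated. Compounds at 10 µM. Higher most likely means stronger inhibition; the record gives no direction and few retests gave an IC50. Of about 65,000 compounds tested this way, about 64 (0.098%) reached 50% or more in at least one test.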

Each number is a percent effect as filed.
The controls that fix the scale are not given in the record; negative values are as filed.
This is an unselected part of the compounds tested.

- CCn1nc(C)c2nc(C(C)C)nc(NCC(C)O)c21 (stereo not shown) : LiHisRS: 15.52%; T. brucei: 12.22%; MtTrpRS: 4.145%
- COc1ccc(OC)c(C(C(=O)O)N2CCSCC2)c1 (stereo not shown) : LiHisRS: 19.47%; T. brucei: -48.5%; MtTrpRS: 5.442%
- O=C(NCCOc1cccc(Cl)c1Cl)N1CCC2(CC1)OCCO2 : LiHisRS: 8.29%; T. brucei: -23.13%; MtTrpRS: -2.556%
- COCCn1cc2c(n1)C(CNCc1ccco1)OCC2.O=C(O)C(F)(F)F.O=C(O)C(F)(F)F (stereo not shown) : T. brucei: -13.98%
- COCCCNc1ncc(-c2cccc(F)c2)c(-c2nccn2C)n1 : LiHisRS: 7.143%; T. brucei: -22.15%; MtTrpRS: -5.567%
- c1nc(N2CCOCC2)nc2c1COCC21CCN(CC2CC2)C1 (stereo not shown) : LiHisRS: 15.38%; T. brucei: -2.908%; MtTrpRS: -1.936%
- Cc1occc1C(=O)N1C[C@@H]2CCCO[C@@H]2[C@H](NC(=O)CC2CC2)C1 : LiHisRS: 6.306%
- Nc1nc2c(c(NC3CCCC3)n1)CCN(C(=O)C1CCOC1)CC2 (stereo not shown) : LiHisRS: 7.018%; T. brucei: -134%; MtTrpRS: 21.46%
- CS(=O)(=O)c1cccc(S(=O)(=O)NCCCN2CCNC(=O)C2)c1 : LiHisRS: 20%; T. brucei: 5.238%; MtTrpRS: 7.654%
- Cc1cc(CS(=O)(=O)N(C)C(C)c2ccc(F)cc2)on1 (stereo not shown) : LiHisRS: -74.6%; T. brucei: -8.437%; MtTrpRS: 8.622%
- CC(C)c1noc(OCc2cccc(S(=O)(=O)N(C)C)c2)n1 : LiHisRS: 18.42%; T. brucei: -44.37%; MtTrpRS: 4.832%
- CC(=O)N1CCCN(C(=O)NCCc2cc(Cl)cc(Cl)c2)CC1 : LiHisRS: -2.703%; T. brucei: -18.27%; MtTrpRS: 1.267%
- CC(=O)N[C@@H]1CN(C(=O)c2cccc(C(F)(F)F)c2)C[C@H]1O : LiHisRS: 9.79%; T. brucei: -14.77%; MtTrpRS: 22.91%
- COCC(=O)N1CCC2(CC1)CN(S(C)(=O)=O)Cc1ccccc1O2 : LiHisRS: 1.449%; T. brucei: -16.99%; MtTrpRS: -3.179%
- Cc1cc(C2CCCN2Cc2cc(-c3ccco3)on2)on1 (stereo not shown) : LiHisRS: 24.73%; T. brucei: -36.29%; MtTrpRS: 3.293%
- CN1CCC(c2cccc(CCC(=O)NCC(N)=O)n2)CC1 : LiHisRS: 11.46%; T. brucei: -18.06%
- Cc1nccn1C1CCCN(C(=O)c2cnc[nH]2)C1 (stereo not shown) : LiHisRS: 1.695%; MtTrpRS: -0.2292%
- [H][C@]12CN(CC3CCC3)C[C@@]1(C(=O)O)CN(C(=O)c1cnccc1C)C2 : T. brucei: -54.02%
- c1cc(CNCc2ccnc(N3CCCC3)c2)c2c(c1)OCO2 : LiHisRS: 30.3%; T. brucei: -13.82%; MtTrpRS: 3.047%
- CCc1cnccc1C(=O)NC1CCN(C(=O)OC)CC1 : LiHisRS: -2.381%; T. brucei: -29.6%; MtTrpRS: 0.7199%
- CCn1cnnc1C1CCN(C(=O)c2cc3c(s2)CCC3)CC1 : LiHisRS: 34.83%; T. brucei: 16.95%; MtTrpRS: 3.855%
- CC1CN(c2ccc(CNC(=O)NCCn3ccnc3)cn2)CCO1 (stereo not shown) : LiHisRS: 19.05%; T. brucei: -7.865%; MtTrpRS: -5.061%
- O=S(=O)(c1cn[nH]c1)N1CCCC(O)(CN2CCOCC2)CC1 (stereo not shown) : LiHisRS: 9.79%; T. brucei: -1.587%; MtTrpRS: -0.3264%

The first 3 entries again:

CCn1nc(C)c2nc(C(C)C)nc(NCC(C)O)c21 (stereo not shown) read LiHisRS: 15.52%; T. brucei: 12.22%; MtTrpRS: 4.145%.
COc1ccc(OC)c(C(C(=O)O)N2CCSCC2)c1 (stereo not shown) read LiHisRS: 19.47%; T. brucei: -48.5%; MtTrpRS: 5.442%.
O=C(NCCOc1cccc(Cl)c1Cl)N1CCC2(CC1)OCCO2 read LiHisRS: 8.29%; T. brucei: -23.13%; MtTrpRS: -2.556%.